## Assay results

From PubChem BioAssay record AID912 (NCATS, 2007).

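A cell-based FRET test of anthrax lethal toxin entry, tracked through the 460 nm emission signal; the cell line is not named here.
Each compound was tested as a concentration series from about 0.0005 to 40 µM.
The number is the fitted AC50 of the 460 nm signal alone; lower values mean a more potent effect. A falling signal goes with compounds filed as inhibitors or cytotoxic, a rising one with activators or fluorescent compounds (inferred from the filed classes).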

Values are in µM.
Common to all entries: measured here: 460 nm channel.
Part of the compounds only, not a random draw; the main read-out is not listed here.
Potencies fitted to partial, single-point or poorly fitting curves are rough.
The first word of each remark tells which way the curve ran; it can be opposite to the aim of the assay.

| Compound | AC50 (µM) | remark |
|---|---|---|
| `CC(=O)c1nc2ccccc2n1S(=O)(=O)c1ccc(C)cc1` | 7.943 | rising, partial curve, poor fit |
| `COc1cccc(/C=N/n2c(C)c3c(C)nnc(C)c3c2C)c1O` | 10 | falling, partial curve |
| `Clc1ccc(-n2ncc3c(NCc4ccc5c(c4)OCO5)ncnc32)cc1` | 0.01995 | falling, full curve, poor fit |
| `CCN1C(=O)CSC1=NC1C2CC3CC(C2)CC1C3` (configuration not stated) | 31.62 | falling, single point |
| `COc1cc(NC(=O)C2COc3ccccc3O2)c(OC)cc1Cl` (configuration not stated) | 19.95 | falling, partial curve |
| `Cc1nnc(NC(=O)Nc2cccc(Cl)c2)s1` | 31.62 | falling, single point |
| `CC(Nc1cc(=O)n(C)c(=O)n1C)c1ccccc1` (configuration not stated) | 1.585 | rising, full curve, poor fit |
| `CCOC(=O)N1CCN(C(=O)c2ccccc2NC(=O)COc2ccccc2C)CC1` | 15.85 | falling, partial curve |
| `CCOC(=O)C1=C(C)OC(N)=C(C#N)C1c1ccsc1` (configuration not stated) | 0.0631 | falling, full curve |
| `O=C(O)CC[C@@]1(c2ccccc2)NC(=O)NC1=O` | 1 | rising, single point |
| `COc1ccc2c(Cc3c4ccccc4cc4ccccc34)cncc2c1O` | 3.162 | falling, single point |
| `Cc1ccc(C(C(=O)NC2CCCCC2)N(Cc2cccnc2)C(=O)C2COc3ccccc3O2)o1` (configuration not stated) | 19.95 | rising, single point |
| `O=C(CCCc1nc(-c2ccccc2Cl)no1)NCc1cccnc1` | 5.012 | rising, single point |
| `CCN(CC)C(=O)Oc1ccc2c(=O)c(-c3ccc(OC)cc3)coc2c1` | 5.012 | falling, full curve |
| `CCOC(=O)CC(=O)CSc1nc2c(sc(=S)n2-c2ccccc2)c(=O)[nH]1` | 10 | rising, partial curve |
| `Cc1n[nH]c(=O)nc1NCc1ccco1` | 5.012 | rising, single point |
| `COc1ccc(-c2nnn(CC(=O)Nc3sc4c(c3C#N)CCCC4)n2)cc1` | 5.012 | rising, single point |
| `CC(C)NC[C@@H](O)COc1ccccc1-n1cccc1` | 12.59 | falling, single point |
| `O=[N+]([O-])c1ccccc1S(=O)(=O)NCC1CCC(CNCC2CCc3ccccc3C2)CC1` (configuration not stated) | 31.62 | falling, single point |
| `O=C1N(c2ccccc2)C2CS(=O)(=O)CC2N1c1ccc(Br)cc1` (configuration not stated) | 31.62 | rising, single point |
| `C=CCc1c(C)[nH]c(=S)c(C#N)c1C` | 0.03981 | falling, full curve |
| `COc1cc(CN2CCN(c3cccc(C)c3C)CC2)cc(Br)c1O` | 31.62 | falling, single point |
| `O=C1CSC(c2ccccn2)N1c1cccc(Cl)c1` (configuration not stated) | 5.012 | rising, single point |
| `CCCCNC(=O)CSc1nc2cc3c(cc2c(=O)n1CCCN(CC)CC)OCO3` | 0.02512 | rising, full curve |
| `N[C@@H](CSC1(c2ccc(Cl)cc2)c2ccccc2-c2ccccc21)C(=O)O` | 5.012 | rising, single point |
| `Cc1nn(-c2ccccc2)c(Cl)c1C(=O)N1CCN(c2ncnc3c2cnn3-c2ccccc2)CC1` | 3.162 | falling, full curve |
| `Cc1ccc2nc(-c3ccc4c(c3)OCCO4)cc(C(=O)O)c2c1` | 6.31 | rising, partial curve |
| `Cn1c2ccccc2c2cc(C(=O)OCC(=O)N3CC(=O)Nc4ccccc43)sc21` | 1 | falling, partial curve |
| `CSC1=N/C(=C\c2ccc(C)o2)C(=O)S1` | 10 | falling, single point |
| `O=C(CCc1ccccc1)Nc1nc2ccc(S(=O)(=O)N3CCOCC3)cc2s1` | 31.62 | falling, single point |
| `O=C1c2ccccc2S(=O)(=O)N1CC(O)Cn1c2ccccc2c2ccccc21` (configuration not stated) | 5.012 | falling, partial curve |
| `CSc1cccc(NC(=O)CN(C)S(=O)(=O)c2ccc(F)cc2)c1` | 7.943 | falling, partial curve, poor fit |
| `O=C(Nc1ccc(-c2noc(CCc3ccccc3)n2)cc1)c1ccco1` | 19.95 | falling, single point |
| `CCCN(CCC)CCNC(=O)C1CCN(Cc2nc(-c3ccc(Cl)cc3)oc2C)CC1` | 3.162 | falling, single point |
| `COC(=O)CSc1nnc(-c2cccnc2)n1-c1cc(OC)cc(OC)c1` | 0.631 | falling, partial curve |
| `Cc1cc(C(=O)NNCc2ccccc2)no1` | 0.00631 | rising, full curve, poor fit |
| `Cc1noc(C)c1-c1nc(N(C)Cc2ccco2)c2ccccc2n1` | 25.12 | falling, single point |
| `O=C(Nc1nc(-c2ccncc2)cs1)C1COc2ccccc2O1` (configuration not stated) | 12.59 | falling, partial curve |

For reference, 2 entries once more:

Compound	AC50 (µM)	remark
CCOC(=O)CC(=O)CSc1nc2c(sc(=S)n2-c2ccccc2)c(=O)[nH]1	10	rising, partial curve
O=C1N(c2ccccc2)C2CS(=O)(=O)CC2N1c1ccc(Br)cc1 (configuration not stated)	31.62	rising, single point